Source: patent US7261893 (Pfizer, dated 2007)
No constants are given. Whether binding was seen depends on the method and setting. Some entries that bind do so weakly or less than the wild type.

Sequences of proteins named here, by UniProt entry; tags and fusion partners are left off. Residues count along the entry.
UniProt O14793, residues 24-375: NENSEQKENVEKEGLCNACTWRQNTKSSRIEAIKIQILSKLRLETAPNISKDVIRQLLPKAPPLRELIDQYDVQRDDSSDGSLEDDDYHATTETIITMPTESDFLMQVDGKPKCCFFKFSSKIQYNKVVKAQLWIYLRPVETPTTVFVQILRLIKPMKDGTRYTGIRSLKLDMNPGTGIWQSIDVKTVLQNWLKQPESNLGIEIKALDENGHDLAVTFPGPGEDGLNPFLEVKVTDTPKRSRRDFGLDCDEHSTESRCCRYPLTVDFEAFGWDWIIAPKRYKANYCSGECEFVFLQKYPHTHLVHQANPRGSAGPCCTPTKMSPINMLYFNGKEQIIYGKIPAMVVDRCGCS

Legend:
[1] = molecular target: mature human GDF-8 (growth and differentiation factor-8) (human) (UniProt O14793); experiment: Western blotting, non-reducing conditions
[2] = molecular target: unprocessed GDF-8 (human) (UniProt O14793); experiment: immunoprecipitation from 35S-labelled CHO conditioned medium, antibody 20 ug/ml, Protein A-Sepharose, reducing SDS-PAGE
[3] = molecular target: mature human GDF-8 (growth and differentiation factor-8) (human) (UniProt O14793); experiment: as above
[4] = molecular target: GDF-8 latent complex (human) (UniProt O14793); experiment: as above

Measured: binding

B1: Myo28 human IgG1 antibody (antibody, V domains shown)
VH: QVTLKESGGGLVQPGGSLRLSCAASGFTFSRYVINWVRQAPGKGLEWVSAISVTGGSTAYADSVRGRFTISRDNSKNTLYLQMNSLRAEDTAVYYCTKGQWERGSYYFDYWGRGTLVTVSS
VL: QSVLTQPPSVSGAPGQRVTISCTGSSSNIGDGYDVHWYQQLPGTAPKLLIYGNSHRPSGVPDRFSGSKSDTSASLAITGLQVEDEADYFCHSYDGSVSGWIFGGGTKLTVLG
binds: all assays above
